The record followed here is the supplement of paper PMC10735217.

For this experiment, the system named is HEK293A TEAD-LUC reporter. Briefly: TEAD-luciferase reporter activity (YAP activation), robust Z score vs plate; higher = stronger YAP/TEAD activation. Conditions: 24 h. (In a reporter assay the amount or activity of a reporter protein is the signal.)

Structures can show the parent of a compound that is named as a salt. The list shows a part of the results. Single values are uncertain here, since repeats match poorly.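 The human kidney-derived cells carry a stably integrated construct of eight TEAD-binding elements driving luciferase, read by luminescence in a drug-repurposing library screen. A compound counts as a hit when its signal is more than five robust Z scores above the plate mean.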

With `N#CC1CCN(C(=O)C2CN(c3ccccc3)C(=O)N2)CC1` (stereo not given), the TEAD-luciferase reporter activity is, setting by setting: (compound concentration: 200 nM) inactive: -0.0163; (compound concentration: 10 uM) inactive: 0.894.
With `CC(=O)N1Cc2ccccc2OC2(CCN(C(=O)NC(C)C)CC2)C1`, the TEAD-luciferase reporter activity was inactive: -1.72 (compound concentration: 200 nM) and active: 8.03 (compound concentration: 10 uM).
On to `O=C1CCC(N2C(=O)c3ccccc3S2(=O)=O)C(=O)N1` (stereo not given), for which the TEAD-luciferase reporter activity reads like this: (compound concentration: 200 nM) inactive: -0.612; (compound concentration: 2 uM) inactive: -1.03; (compound concentration: 10 uM) inactive: 2.79.
Taken in the same sequence, the figures for `C=CCc1c(OCCCNCc2ccccc2)ccc2c1[nH]c1ccccc12` were inactive: -0.54, inactive: -0.22 and inactive: 1.4.
With `C#CCN[C@@H]1CCc2ccccc21` [Rasagiline mesilate], the TEAD-luciferase reporter activity runs as follows: (compound concentration: 200 nM) inactive: -0.923; (compound concentration: 2 uM) inactive: 1.89; (compound concentration: 10 uM) inactive: 0.776.
Regarding `Cc1ccc(Cl)c(OCC(O)CNC(C)C)c1` (stereo not given) [analog of bupranolol], the TEAD-luciferase reporter activity (compound concentration: 200 nM) was inactive: -0.105, the TEAD-luciferase reporter activity (compound concentration: 2 uM) was inactive: -0.588 and the TEAD-luciferase reporter activity (compound concentration: 10 uM) was inactive: -0.586.
`NC[C@H]1CC[C@H](C(=O)Oc2ccc(CCC(=O)O)cc2)CC1` [cetraxate]: for the setting “compound concentration: 2 uM”, the TEAD-luciferase reporter activity is inactive: -0.578.
`NC[C@H]1CC[C@H](C(=O)Oc2ccc(CCC(=O)O)cc2)CC1`: the TEAD-luciferase reporter activity was inactive: -0.594 (compound concentration: 200 nM) and inactive: 0.0829 (compound concentration: 10 uM).
As to `CC1c2ccccc2Cn2cc3c(c21)C(=O)c1cccc(O)c1C3=O` (stereo not given), the TEAD-luciferase reporter activity reads like this: (compound concentration: 200 nM) inactive: 1.85; (compound concentration: 2 uM) inactive: 0.217; (compound concentration: 10 uM) inactive: 0.271.
Consider `O=C(O)Cc1ccc2c(c1)CC(CNS(=O)(=O)c1ccc(Cl)cc1)C2` (stereo not given), for which the TEAD-luciferase reporter activity is inactive: -1.13 (compound concentration: 200 nM), inactive: -1.5 (compound concentration: 2 uM) and inactive: -1.06 (compound concentration: 10 uM).
For `O=C(O)c1cc(N=Nc2ccc(S(=O)(=O)Nc3ccccn3)cc2)ccc1O` [sulfasalazine], the TEAD-luciferase reporter activity (compound concentration: 2 uM) is inactive: -1.04.
`O=C(O)c1cc(N=Nc2ccc(S(=O)(=O)Nc3ccccn3)cc2)ccc1O`: the TEAD-luciferase reporter activity was inactive: -0.901 (compound concentration: 200 nM) and inactive: 0.602 (compound concentration: 10 uM).
Consider `O=c1[nH]cnc2[nH]ncc12` [Allopurinol], for which the TEAD-luciferase reporter activity is inactive: -1.16 (compound concentration: 200 nM), inactive: -0.875 (compound concentration: 2 uM) and inactive: -0.906 (compound concentration: 10 uM).
For the compound `Cc1occc(=O)c1O` [maltol], under “compound concentration: 2 uM”, the TEAD-luciferase reporter activity was inactive: -1.25.
For the compound `Cc1occc(=O)c1O`, the TEAD-luciferase reporter activity reads like this: (compound concentration: 200 nM) inactive: 0.133; (compound concentration: 10 uM) inactive: -0.418.
As for `O=CNc1ncc([N+](=O)[O-])s1`, the TEAD-luciferase reporter activity runs as follows: (compound concentration: 200 nM) inactive: 0.541; (compound concentration: 2 uM) inactive: -1.36; (compound concentration: 10 uM) inactive: -1.08.
Taken in the same sequence, the figures for `C[C@H](N)C(=O)N[C@@]1(C(=O)O)C[C@@H](Sc2nnc[nH]2)[C@H]2[C@H](C(=O)O)[C@H]21` were inactive: 1.79, inactive: -1.36 and inactive: -2.09.
`c1ccc2c(c1)CCCC2C1=NCCN1` (stereo not given) [Tyzine]: the TEAD-luciferase reporter activity by setting is: (compound concentration: 200 nM) inactive: -0.54; (compound concentration: 10 uM) inactive: 1.69.
As to `c1ccc2c(c1)CCCC2C1=NCCN1` (stereo not given) [Tetrahydrozoline hydrochloride], under “compound concentration: 2 uM”, the TEAD-luciferase reporter activity was inactive: -0.877.
For the compound `CC1/C=C/C=C/C=C/C=C/C=C/C=C/C=C/C(OC2OC(C)C(O)C(N)C2O)CC(O)C(C(=O)O)C(O)CC(=O)CC(O)CC(O)CC(O)CC(=O)CCCC(=O)CC(=O)OC1C(C)CC(C)C(O)CC(=O)c1ccc(N)cc1` (stereo not given), the TEAD-luciferase reporter activity reads like this: (compound concentration: 200 nM) inactive: -0.926; (compound concentration: 2 uM) inactive: -0.98; (compound concentration: 10 uM) inactive: -0.713.
As for `CC1=C(C(=O)O)N2C(=O)[C@@H](NC(=O)[C@H](N)C3=CCC=CC3)[C@H]2SC1` [Cefradine], where the note is “compound concentration: 2 uM”, the TEAD-luciferase reporter activity is inactive: -1.66.
As to `CC1=C(C(=O)O)N2C(=O)[C@@H](NC(=O)[C@H](N)C3=CCC=CC3)[C@H]2SC1` [Cephradine], the TEAD-luciferase reporter activity by setting is: (compound concentration: 200 nM) inactive: -0.961; (compound concentration: 10 uM) inactive: 3.44.
As for `CCOP(=O)(OCC)C1(P(=O)(OCC)OCC)CC(C(=O)c2ccccc2)=NN1`, the TEAD-luciferase reporter activity reads like this: (compound concentration: 200 nM) inactive: -0.773; (compound concentration: 2 uM) inactive: -0.644; (compound concentration: 10 uM) inactive: 2.11.
Regarding `CS(=O)(=O)Nc1cc2c(cc1Sc1ccc(F)cc1F)C(=O)CC2`, the TEAD-luciferase reporter activity by setting is: (compound concentration: 200 nM) inactive: -1.24; (compound concentration: 2 uM) inactive: 0.00553; (compound concentration: 10 uM) inactive: -0.663.
Taken in the same sequence, the figures for `O=C(O)CCCN1CCC(O[C@@H](c2ccc(Cl)cc2)c2ccccn2)CC1` [bepotastine besilate] were inactive: 0.0578, inactive: -0.471 and active: 5.14.
Consider `CC(C)c1cc2ccccn2c1C(=O)c1ccc(OCCCNC(C)(C)C)cc1` [brinazarone], for which the TEAD-luciferase reporter activity reads like this: (compound concentration: 200 nM) inactive: 0.0608; (compound concentration: 2 uM) inactive: 0.219; (compound concentration: 10 uM) inactive: 0.508.
On to `CCOC(=O)C1=C(C)NC(CN(C)C)=C(C(=O)OCC)C1c1ccccc1/C=C/C(=O)OC(C)(C)C` (stereo not given), for which the TEAD-luciferase reporter activity reads like this: (compound concentration: 200 nM) inactive: -0.907; (compound concentration: 2 uM) inactive: -0.943; (compound concentration: 10 uM) inactive: -2.25.
Taken in the same sequence, the figures for `O=c1oc2ccccc2cc1Oc1ccc(Cl)cc1Cl` were inactive: -1.47, inactive: 0.743 and inactive: 2.29.
As for `CNC(=O)[C@@H](c1ccccc1)N1CCc2cc(OC)c(OC)cc2[C@@H]1CCc1ccc(C(F)(F)F)cc1` [Almorexant], the TEAD-luciferase reporter activity was inactive: 0.246 (compound concentration: 200 nM), inactive: -1.77 (compound concentration: 2 uM) and inactive: -0.435 (compound concentration: 10 uM).
